Measured values from article PMC11290222.
No constants are given. Whether binding was seen depends on the method and setting. In cells and extracts the contact can be indirect. Some results given as binding are weak or reduced against the parent protein; the word gives no strength.

Amino acid sequences for entries named in this document (tags omitted).
UniProt P83949: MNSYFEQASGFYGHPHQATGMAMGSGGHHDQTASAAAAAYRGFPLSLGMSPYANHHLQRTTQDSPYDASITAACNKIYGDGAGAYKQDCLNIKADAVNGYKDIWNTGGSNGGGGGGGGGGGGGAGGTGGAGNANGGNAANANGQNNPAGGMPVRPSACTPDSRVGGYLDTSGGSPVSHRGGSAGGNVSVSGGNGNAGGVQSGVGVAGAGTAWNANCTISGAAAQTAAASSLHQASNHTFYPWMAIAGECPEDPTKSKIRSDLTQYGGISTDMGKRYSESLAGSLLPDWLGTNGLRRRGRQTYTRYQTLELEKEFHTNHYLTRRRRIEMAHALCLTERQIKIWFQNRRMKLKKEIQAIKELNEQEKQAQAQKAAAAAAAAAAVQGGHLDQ
UniProt P02833: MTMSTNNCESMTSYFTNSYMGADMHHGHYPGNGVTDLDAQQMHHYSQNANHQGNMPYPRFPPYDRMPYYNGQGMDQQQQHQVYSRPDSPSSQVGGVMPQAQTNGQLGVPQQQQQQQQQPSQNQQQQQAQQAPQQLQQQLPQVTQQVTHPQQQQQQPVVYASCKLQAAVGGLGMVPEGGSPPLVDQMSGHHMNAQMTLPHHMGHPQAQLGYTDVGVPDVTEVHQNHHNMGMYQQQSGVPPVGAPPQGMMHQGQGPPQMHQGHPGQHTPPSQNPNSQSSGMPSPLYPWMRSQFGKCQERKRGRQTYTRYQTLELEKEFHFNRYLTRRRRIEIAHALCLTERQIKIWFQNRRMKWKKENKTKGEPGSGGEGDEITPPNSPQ

Biological target: Ubx full-length fused to VN, expressed in transgenic flies (UAS-VNUbx) (Drosophila) (UniProt P83949)
Experiment: split reporter; BiFC in Drosophila embryos (nullo-, antp-, ptc-Gal4) and imaginal discs (dll-Gal4), UAS/Gal4 co-expression; crosses at 25 °C overnight, embryos 48 h at 4 °C before visualisation

binding: binds
Substance: Antp full-length fused to VC, expressed in transgenic flies (UAS-VCAntp) (from UniProt P02833 1-378)
